# Measurements reported in the supplement of paper PMC11732987, “Enantioselective OTUD7B fragment discovery through chemoproteomics screening and high-throughput optimisation” (Communications Chemistry, 2025).
# By UniProt entry, the sequences of proteins in these tests, tags left out. Where a name states a change or a piece, a line headed by the entry shows the natural chain unless it says otherwise. Residues count along the entry.
# UniProt Q96PV6, 435-455: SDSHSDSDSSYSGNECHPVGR
# UniProt P49916: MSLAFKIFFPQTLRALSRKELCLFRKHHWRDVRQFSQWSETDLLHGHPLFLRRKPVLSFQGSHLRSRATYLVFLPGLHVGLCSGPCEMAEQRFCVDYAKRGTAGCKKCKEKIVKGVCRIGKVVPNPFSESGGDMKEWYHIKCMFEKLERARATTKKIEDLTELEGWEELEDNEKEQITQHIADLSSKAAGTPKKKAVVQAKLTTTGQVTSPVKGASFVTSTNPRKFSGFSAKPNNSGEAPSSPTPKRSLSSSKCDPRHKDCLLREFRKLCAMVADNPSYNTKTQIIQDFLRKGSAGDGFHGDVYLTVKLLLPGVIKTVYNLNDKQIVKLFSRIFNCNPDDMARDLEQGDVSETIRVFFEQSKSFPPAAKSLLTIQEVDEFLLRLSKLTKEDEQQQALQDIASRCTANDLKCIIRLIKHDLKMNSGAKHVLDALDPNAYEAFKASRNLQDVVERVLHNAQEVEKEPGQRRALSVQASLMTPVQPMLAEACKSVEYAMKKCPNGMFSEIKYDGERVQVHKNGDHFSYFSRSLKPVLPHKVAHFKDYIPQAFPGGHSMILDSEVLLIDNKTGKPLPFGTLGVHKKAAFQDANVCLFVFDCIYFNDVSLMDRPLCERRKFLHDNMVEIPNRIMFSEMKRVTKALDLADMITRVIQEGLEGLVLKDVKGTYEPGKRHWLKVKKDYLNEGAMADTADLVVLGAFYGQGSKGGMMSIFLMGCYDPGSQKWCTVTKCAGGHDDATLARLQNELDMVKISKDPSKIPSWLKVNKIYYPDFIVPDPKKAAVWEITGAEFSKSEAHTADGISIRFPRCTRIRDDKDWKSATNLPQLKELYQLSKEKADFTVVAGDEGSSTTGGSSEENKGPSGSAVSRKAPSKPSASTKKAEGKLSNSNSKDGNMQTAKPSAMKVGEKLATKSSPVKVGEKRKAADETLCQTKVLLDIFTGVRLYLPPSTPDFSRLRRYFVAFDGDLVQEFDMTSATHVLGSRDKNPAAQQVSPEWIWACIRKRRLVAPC
# UniProt Q03164, whole entry, looked up: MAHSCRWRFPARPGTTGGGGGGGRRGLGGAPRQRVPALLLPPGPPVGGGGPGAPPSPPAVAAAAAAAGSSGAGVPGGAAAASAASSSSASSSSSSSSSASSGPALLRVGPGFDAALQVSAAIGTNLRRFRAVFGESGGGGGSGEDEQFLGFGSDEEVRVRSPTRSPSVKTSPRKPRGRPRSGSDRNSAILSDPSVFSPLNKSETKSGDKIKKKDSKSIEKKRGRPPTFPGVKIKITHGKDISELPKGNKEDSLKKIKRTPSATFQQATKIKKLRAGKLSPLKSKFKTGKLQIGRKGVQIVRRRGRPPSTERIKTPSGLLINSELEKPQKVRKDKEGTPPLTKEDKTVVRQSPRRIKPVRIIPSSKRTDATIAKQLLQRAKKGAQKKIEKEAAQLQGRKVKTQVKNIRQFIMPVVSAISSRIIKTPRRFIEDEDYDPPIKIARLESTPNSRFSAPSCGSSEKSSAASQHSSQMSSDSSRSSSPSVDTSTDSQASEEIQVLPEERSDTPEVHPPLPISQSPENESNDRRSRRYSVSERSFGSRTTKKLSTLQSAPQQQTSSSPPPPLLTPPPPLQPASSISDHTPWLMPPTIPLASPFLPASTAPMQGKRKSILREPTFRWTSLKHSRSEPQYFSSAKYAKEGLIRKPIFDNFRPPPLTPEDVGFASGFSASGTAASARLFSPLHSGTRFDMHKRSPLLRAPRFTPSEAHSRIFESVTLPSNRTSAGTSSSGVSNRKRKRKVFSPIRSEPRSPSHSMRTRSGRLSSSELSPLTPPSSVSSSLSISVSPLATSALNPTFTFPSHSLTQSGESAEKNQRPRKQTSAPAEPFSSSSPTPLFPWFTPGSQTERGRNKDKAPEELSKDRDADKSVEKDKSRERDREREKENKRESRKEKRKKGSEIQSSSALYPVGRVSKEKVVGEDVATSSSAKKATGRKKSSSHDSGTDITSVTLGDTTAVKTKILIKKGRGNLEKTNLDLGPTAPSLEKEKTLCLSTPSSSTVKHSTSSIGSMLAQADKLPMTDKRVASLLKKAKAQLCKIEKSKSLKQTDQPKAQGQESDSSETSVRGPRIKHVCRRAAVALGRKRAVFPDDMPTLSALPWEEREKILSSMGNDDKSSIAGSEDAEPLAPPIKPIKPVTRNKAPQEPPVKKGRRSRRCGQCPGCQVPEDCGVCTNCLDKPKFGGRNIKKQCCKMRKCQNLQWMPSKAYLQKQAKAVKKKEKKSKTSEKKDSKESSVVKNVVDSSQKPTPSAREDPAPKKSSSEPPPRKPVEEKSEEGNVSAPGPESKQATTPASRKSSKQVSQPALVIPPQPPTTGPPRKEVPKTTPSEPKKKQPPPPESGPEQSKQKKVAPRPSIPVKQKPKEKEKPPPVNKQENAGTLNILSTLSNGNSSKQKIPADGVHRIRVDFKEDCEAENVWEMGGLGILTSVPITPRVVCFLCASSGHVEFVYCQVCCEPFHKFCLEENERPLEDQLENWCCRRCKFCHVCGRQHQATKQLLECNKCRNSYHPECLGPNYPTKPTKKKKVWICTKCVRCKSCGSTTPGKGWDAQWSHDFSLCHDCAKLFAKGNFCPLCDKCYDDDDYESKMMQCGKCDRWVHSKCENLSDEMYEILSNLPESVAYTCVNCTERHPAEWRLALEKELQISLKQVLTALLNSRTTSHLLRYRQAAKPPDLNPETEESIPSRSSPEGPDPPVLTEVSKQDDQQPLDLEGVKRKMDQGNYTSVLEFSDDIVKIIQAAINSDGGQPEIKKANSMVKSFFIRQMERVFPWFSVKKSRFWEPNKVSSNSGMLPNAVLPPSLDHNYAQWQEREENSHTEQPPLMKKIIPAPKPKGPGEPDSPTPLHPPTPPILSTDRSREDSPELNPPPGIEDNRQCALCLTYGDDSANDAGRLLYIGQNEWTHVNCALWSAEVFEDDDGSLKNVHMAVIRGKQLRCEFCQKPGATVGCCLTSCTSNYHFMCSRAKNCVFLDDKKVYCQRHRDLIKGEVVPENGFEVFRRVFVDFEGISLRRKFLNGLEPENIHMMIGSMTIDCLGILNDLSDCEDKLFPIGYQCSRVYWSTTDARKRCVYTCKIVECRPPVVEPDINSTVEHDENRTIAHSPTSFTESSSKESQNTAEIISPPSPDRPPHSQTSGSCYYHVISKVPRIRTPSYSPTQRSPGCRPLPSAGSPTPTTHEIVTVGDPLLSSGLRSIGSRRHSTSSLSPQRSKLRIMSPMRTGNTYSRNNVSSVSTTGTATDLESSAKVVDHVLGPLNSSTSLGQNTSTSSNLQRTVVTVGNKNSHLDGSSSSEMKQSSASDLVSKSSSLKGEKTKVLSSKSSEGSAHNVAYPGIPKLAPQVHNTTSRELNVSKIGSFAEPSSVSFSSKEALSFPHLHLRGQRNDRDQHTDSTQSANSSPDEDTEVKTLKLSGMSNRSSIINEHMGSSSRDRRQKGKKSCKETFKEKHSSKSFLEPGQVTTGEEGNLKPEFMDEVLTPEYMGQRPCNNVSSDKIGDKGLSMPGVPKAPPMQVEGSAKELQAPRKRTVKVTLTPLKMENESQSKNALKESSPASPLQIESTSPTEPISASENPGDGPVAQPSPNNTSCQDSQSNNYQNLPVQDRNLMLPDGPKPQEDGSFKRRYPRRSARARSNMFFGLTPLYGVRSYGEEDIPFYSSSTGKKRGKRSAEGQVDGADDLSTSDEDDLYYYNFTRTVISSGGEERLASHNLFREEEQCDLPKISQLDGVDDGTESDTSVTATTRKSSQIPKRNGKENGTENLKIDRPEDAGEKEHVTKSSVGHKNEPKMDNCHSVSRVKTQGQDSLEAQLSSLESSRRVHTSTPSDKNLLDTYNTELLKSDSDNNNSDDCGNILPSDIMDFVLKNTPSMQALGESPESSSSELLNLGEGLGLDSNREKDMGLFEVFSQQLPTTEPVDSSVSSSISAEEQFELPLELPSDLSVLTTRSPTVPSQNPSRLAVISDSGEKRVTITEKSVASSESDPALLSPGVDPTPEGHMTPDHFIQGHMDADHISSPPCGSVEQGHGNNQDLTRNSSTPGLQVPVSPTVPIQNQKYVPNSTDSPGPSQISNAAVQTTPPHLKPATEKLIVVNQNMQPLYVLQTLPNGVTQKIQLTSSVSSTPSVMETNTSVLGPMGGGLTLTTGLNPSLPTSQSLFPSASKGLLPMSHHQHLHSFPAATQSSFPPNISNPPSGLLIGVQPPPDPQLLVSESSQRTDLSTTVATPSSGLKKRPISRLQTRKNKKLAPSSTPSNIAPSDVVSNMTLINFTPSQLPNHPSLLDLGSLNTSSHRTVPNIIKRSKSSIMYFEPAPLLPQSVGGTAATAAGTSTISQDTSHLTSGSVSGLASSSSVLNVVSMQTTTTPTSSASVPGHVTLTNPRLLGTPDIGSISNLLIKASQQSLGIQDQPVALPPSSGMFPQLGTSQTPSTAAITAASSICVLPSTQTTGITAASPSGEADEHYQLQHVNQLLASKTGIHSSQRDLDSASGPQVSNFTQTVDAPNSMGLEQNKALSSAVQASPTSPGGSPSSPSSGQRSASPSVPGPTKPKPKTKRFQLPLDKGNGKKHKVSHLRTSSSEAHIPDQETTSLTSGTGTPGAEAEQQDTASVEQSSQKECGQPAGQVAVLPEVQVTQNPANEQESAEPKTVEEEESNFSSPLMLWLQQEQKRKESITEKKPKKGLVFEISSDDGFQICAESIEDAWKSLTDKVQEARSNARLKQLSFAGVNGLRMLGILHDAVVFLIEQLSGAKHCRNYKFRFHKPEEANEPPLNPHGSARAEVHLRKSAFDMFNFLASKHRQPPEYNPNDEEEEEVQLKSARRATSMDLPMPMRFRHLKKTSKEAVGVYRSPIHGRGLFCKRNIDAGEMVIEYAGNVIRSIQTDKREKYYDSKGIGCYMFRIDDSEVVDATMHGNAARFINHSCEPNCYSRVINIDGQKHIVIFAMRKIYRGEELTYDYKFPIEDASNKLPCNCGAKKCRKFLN
# UniProt Q15334: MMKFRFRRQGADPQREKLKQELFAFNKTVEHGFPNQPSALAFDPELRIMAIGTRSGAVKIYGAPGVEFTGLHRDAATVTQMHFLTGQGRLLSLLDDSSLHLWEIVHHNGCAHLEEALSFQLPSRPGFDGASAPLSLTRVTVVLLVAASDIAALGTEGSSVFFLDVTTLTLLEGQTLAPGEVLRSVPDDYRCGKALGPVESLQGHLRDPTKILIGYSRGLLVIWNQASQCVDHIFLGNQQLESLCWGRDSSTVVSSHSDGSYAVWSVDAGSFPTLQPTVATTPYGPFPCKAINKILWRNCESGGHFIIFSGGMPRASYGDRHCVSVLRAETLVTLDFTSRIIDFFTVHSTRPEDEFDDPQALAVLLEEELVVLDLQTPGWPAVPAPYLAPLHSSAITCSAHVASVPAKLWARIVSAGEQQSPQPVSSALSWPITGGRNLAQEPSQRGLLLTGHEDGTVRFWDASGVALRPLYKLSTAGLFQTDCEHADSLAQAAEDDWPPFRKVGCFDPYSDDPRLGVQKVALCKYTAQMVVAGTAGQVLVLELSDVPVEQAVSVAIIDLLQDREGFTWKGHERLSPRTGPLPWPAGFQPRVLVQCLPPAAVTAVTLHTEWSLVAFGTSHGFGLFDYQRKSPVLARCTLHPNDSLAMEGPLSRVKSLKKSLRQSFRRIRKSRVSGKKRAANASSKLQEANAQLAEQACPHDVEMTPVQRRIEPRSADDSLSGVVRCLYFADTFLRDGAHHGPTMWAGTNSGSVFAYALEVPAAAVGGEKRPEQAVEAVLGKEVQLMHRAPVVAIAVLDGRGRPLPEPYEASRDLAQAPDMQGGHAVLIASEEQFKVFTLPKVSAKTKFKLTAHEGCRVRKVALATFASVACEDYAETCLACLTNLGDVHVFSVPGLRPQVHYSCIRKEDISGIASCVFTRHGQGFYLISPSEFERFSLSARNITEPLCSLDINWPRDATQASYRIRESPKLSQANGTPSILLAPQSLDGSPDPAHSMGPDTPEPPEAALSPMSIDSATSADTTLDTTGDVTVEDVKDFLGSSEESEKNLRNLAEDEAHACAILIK
# UniProt Q8NEZ4, 3744-3769: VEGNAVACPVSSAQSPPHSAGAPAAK
# UniProt P48059, whole entry, looked up: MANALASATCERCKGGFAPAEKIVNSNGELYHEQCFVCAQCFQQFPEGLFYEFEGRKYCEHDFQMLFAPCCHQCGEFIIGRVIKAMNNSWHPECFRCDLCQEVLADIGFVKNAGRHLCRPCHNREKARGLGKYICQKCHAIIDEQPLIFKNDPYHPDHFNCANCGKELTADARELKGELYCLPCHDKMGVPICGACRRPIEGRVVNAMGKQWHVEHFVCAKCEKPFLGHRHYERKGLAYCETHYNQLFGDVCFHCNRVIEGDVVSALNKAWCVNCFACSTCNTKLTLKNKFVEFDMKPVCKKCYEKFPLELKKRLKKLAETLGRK
# The other results are listed elsewhere or left out. The data scatter; read single values as rough.
# Compound: ClCC(=O)N[C@@H]1CCCc2ccccc12
# Test: log2 mean competition ratio of IA-DTB cysteine labelling (DMSO/compound) (log2 ratio); higher = stronger cysteine engagement by compound
# Conditions: 200 µM; treatment time: 4 h; cell line lysate: HEK293T
# Experimental: (§1)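 IA-DTB competitive cysteine chemoproteomics in HEK293T RIPA lysate. Lysates were treated with compound 29 or 30 at 50 or 200 µM for 4 h, then IA-DTB (500 µM, 1 h), trypsin-digested, NeutrAvidin-enriched and analysed by diaPASEF. Competition ratio = intensity DMSO / intensity compound (n=4 treated, n=64 DMSO); binding: mean log2 CR ≥ 1 and p ≤ 0.05 plus QC filters. Target is the cysteine site.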
row,Target,log2 mean competition ratio
1,KLHL11 C570 (UniProt Q9NVR0),-0.0262
2,LRBA C2740,-0.0543
3,LIFR C889 (UniProt P42702),-0.125
4,LACTB2 C100 (UniProt Q53H82),0.0569
5,LPIN3 C711 (UniProt Q9BQK8),-0.109
6,LENG8 C450 (UniProt Q96PV6),-0.185
7,LIG3 C929 (UniProt P49916),0.0443
8,LDLR C667 (UniProt P01130),0.108
9,LRBA C2675,-0.345
10,KMT2A C1575 (UniProt Q03164),0.452
11,LRPPRC C113,0.321
12,LIG3 C404 (UniProt P49916),0.144
13,LACTB C476 (UniProt P83111),0.268
14,LONRF2 C220 (UniProt Q1L5Z9),0.846
15,LLGL1 C915 (UniProt Q15334),0.107
16,LONP1 C682 (UniProt P36776),-0.0335
17,KNL1 C1233 (UniProt Q8NG31),-0.0242
18,LMOD1 C72,-0.241
19,KIFAP3 C463 (UniProt Q92845),0.391

# Compound: ClCC(=O)N[C@H]1CCCc2ccccc12
# Test: as above
# Conditions: 50 µM; treatment time: 4 h; cell line lysate: HEK293T
# Experimental: as §1
row,Target,log2 mean competition ratio
1,KLHL22 C11 (UniProt Q53GT1),-0.188
2,KRIT1 C297 (UniProt O00522),-0.276
3,LEMD3 C838 (UniProt Q9Y2U8),0.0526
4,KLHL11 C318 (UniProt Q9NVR0),0.167
5,KMT2C C3751 (UniProt Q8NEZ4),0.0279
6,KLHL41 C147 (UniProt O60662),-0.0602
7,LRPPRC C848,-0.728
8,LIAS C106 (UniProt O43766),0.0861
9,"LARP1B C775, A0A3B3ISF0",-0.0392
10,LDLRAP1 C119 (UniProt Q5SW96),0.127
11,LIMA1 C164 (UniProt Q9UHB6),0.0523
12,LLGL1 C1059 (UniProt Q15334),-0.263
13,LDLR C75 (UniProt P01130),0.0504
14,KYAT3 C416 (UniProt Q6YP21),-0.323
15,KPNA1 C298 (UniProt P52294),-0.0038
16,KMT2A C456 (UniProt Q03164),-0.0259
17,LIMS1 C300 (UniProt P48059),-0.386
18,LAMP1 C338 (UniProt P11279),0.0677
19,LOC100421372 C227,0.416

row,Target,log2 mean competition ratio
1,KLHL11 C570 (UniProt Q9NVR0),0.145
2,LRBA C2740,-0.156
3,LIFR C889 (UniProt P42702),0.349
4,LACTB2 C100 (UniProt Q53H82),0.0468
5,LPIN3 C711 (UniProt Q9BQK8),-0.135
6,LENG8 C450 (UniProt Q96PV6),0.0504
7,LIG3 C929 (UniProt P49916),-0.0815
8,LDLR C667 (UniProt P01130),0.269
9,LRBA C2675,-0.131
10,KMT2A C1575 (UniProt Q03164),-0.607
11,LRPPRC C113,-0.0078
12,LIG3 C404 (UniProt P49916),0.0715
13,LACTB C476 (UniProt P83111),0.0055
14,LONRF2 C220 (UniProt Q1L5Z9),-0.142
15,LLGL1 C915 (UniProt Q15334),-0.0434
16,LONP1 C682 (UniProt P36776),-0.065
17,KNL1 C1233 (UniProt Q8NG31),-0.279
18,LMOD1 C72,0.29
19,KIFAP3 C463 (UniProt Q92845),-0.0395
